Source: paper PMC10837013
For at least one entry, the source does not settle the construct or the ends of the probe. A negative result means that nothing was seen under these conditions. For some assays here: Tags and fusion partners may be left off the protein sequences shown.

Sequences of proteins named here, by UniProt entry; tags and fusion partners are left off.
UniProt R4S7B4, entry or part of it: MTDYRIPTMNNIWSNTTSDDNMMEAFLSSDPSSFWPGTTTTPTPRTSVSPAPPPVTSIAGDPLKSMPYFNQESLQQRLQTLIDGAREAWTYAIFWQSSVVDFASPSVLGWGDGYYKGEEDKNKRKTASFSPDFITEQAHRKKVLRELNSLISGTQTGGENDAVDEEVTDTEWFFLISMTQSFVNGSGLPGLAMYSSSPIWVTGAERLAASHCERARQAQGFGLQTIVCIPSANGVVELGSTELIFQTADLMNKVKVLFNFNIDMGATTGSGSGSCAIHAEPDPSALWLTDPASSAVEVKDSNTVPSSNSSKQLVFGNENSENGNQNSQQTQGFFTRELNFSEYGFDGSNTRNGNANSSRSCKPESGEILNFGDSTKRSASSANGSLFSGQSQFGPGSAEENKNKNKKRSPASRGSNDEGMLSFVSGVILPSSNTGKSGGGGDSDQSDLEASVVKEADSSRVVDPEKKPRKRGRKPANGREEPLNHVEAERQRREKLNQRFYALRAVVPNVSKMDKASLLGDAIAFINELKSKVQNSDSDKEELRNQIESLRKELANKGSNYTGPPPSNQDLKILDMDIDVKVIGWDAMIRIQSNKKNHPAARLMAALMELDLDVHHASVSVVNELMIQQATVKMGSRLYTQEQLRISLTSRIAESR
UniProt R4SEZ2, entry or part of it: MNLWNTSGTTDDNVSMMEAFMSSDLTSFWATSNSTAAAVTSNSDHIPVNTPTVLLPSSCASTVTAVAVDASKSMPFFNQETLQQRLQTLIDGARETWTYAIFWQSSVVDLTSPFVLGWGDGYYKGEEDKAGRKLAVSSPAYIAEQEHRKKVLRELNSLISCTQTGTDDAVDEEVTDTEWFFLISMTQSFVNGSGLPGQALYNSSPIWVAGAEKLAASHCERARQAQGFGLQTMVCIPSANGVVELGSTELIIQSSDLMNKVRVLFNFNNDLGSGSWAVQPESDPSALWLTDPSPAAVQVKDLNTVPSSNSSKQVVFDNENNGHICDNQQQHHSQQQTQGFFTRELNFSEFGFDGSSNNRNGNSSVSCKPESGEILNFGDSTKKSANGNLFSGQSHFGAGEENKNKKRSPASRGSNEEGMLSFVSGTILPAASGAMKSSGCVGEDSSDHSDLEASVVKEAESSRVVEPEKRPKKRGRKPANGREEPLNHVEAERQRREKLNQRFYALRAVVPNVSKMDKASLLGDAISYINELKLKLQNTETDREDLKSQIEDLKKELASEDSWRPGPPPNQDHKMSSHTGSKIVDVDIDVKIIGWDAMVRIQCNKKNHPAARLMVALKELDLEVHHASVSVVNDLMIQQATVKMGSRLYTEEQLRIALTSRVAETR

What was measured:
Experiment in all cases: EMSA
[1] = target: T1, NaWRKY70 (Nicotiana attenuata) (UniProt A0A1J6IGI0); conditions: Chemiluminescence EMSA kit (Beyotime), manufacturer's protocol, pH and temperature not stated, recombinant protein, protein details: GST (pGEX-4T-1), label: biotin
T1 sequence (looked up, limits assumed): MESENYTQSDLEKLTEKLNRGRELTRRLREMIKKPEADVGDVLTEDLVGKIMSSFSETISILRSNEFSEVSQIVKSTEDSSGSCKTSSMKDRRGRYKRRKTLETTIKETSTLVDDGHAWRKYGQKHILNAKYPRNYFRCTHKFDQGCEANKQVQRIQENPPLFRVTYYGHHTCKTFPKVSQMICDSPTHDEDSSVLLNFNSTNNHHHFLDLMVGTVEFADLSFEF

[2] = target: NaMYC2a (Nicotiana attenuata) (UniProt R4S7B4); conditions: Chemiluminescence EMSA kit (Beyotime), manufacturer's protocol; pH and temperature not stated; recombinant protein; residues 1-656; protein details: GST (pGEX-4T-1); label: biotin
[3] = target: NaMYC2b (Nicotiana attenuata) (UniProt R4SEZ2); conditions: Chemiluminescence EMSA kit (Beyotime), manufacturer's protocol; pH and temperature not stated; recombinant protein; residues 1-666; protein details: GST (pGEX-4T-1); label: biotin

Sequence	binding result [2]	binding result [3]	binding result [1]	further results
GGTCTCTTTAGGTCAACCAACTATTC (double strand) [NaF6'H1 Probe1]				binding result ([1]; attenuated by 50x, abolished by 200x unlabeled probe): binds
TTAATCCCAACAAGTGGGGTATGGGG (double strand) [NaMYC-NaWRKY70-Probe1]	no binding	no binding		
TTTTGCACTCAGTCAGGCTAAAATCG (double strand) [NaF6'H1 Probe2]			no binding	
ACGTATATATGGTCACAGAAATTTAA (double strand) [NaF6'H1 Probe3]			no binding	
TTTCAAGGCAGTGACTTGCAACTATA (double strand) [NaF6'H1 Probe4]			no binding	
TTACAAATTGCATGTGAAATTCTGTG (double strand) [NaMYC-NaWRKY70-Probe3]	no binding	no binding		
GTTTCATGGCATGACAATTGCCTATA (double strand) [NaF6'H1 Probe5]			no binding	
AGGCTGACAACATATGAATAACGTCA (double strand) [NaMYC-NaWRKY70-Probe2]	no binding	no binding		
